Reference: paper PMC7434441
These are yes or no findings as the source states them, for the method shown. In cells and extracts the contact can be indirect. Some entries that bind do so weakly or less than the wild type. For some assays here: Where a sequence is shown, tags or fusion partners need not be part of it.

T1: BCL9 (full-length, endogenous in control mouse colorectal tumors) (mouse (endogenous in mouse colorectal tumors)) (UniProt Q9D219)
T1 sequence: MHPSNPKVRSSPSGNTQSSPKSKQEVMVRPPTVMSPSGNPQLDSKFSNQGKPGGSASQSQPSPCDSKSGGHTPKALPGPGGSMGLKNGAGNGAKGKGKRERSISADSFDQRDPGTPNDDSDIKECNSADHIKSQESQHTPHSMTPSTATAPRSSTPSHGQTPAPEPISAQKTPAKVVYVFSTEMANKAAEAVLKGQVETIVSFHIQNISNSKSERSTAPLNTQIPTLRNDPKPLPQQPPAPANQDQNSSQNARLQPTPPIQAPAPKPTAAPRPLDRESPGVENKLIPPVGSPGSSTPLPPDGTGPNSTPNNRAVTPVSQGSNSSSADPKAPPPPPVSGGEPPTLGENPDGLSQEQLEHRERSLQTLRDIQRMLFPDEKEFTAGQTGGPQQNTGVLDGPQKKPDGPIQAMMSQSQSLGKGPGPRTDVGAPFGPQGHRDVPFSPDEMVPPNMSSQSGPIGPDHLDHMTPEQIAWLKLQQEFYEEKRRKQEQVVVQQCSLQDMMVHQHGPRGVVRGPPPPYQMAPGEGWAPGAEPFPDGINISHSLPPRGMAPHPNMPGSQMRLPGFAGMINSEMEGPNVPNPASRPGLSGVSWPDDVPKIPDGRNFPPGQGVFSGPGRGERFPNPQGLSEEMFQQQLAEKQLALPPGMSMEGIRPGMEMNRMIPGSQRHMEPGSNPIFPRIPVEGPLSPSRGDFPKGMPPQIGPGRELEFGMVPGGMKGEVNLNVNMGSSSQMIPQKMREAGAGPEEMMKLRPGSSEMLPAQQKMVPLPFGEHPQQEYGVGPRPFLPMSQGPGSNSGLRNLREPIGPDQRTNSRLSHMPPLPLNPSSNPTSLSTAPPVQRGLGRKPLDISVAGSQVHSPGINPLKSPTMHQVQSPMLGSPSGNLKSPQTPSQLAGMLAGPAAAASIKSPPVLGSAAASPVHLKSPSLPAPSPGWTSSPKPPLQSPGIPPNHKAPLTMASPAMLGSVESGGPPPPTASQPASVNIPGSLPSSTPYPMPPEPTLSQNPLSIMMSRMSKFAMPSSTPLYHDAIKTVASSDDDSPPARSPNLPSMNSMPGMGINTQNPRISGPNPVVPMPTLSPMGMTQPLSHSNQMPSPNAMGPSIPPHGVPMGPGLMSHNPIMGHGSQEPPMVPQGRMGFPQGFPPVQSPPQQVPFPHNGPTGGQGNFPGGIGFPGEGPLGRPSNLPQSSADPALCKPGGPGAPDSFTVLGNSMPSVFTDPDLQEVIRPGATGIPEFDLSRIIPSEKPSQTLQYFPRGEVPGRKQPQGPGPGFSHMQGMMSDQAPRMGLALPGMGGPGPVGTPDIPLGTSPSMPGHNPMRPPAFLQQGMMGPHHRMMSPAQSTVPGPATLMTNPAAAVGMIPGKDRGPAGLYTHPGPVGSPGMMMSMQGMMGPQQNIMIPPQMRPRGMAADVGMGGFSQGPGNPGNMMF

T2: BCL9-HA (UniProt O00512)
T2 sequence: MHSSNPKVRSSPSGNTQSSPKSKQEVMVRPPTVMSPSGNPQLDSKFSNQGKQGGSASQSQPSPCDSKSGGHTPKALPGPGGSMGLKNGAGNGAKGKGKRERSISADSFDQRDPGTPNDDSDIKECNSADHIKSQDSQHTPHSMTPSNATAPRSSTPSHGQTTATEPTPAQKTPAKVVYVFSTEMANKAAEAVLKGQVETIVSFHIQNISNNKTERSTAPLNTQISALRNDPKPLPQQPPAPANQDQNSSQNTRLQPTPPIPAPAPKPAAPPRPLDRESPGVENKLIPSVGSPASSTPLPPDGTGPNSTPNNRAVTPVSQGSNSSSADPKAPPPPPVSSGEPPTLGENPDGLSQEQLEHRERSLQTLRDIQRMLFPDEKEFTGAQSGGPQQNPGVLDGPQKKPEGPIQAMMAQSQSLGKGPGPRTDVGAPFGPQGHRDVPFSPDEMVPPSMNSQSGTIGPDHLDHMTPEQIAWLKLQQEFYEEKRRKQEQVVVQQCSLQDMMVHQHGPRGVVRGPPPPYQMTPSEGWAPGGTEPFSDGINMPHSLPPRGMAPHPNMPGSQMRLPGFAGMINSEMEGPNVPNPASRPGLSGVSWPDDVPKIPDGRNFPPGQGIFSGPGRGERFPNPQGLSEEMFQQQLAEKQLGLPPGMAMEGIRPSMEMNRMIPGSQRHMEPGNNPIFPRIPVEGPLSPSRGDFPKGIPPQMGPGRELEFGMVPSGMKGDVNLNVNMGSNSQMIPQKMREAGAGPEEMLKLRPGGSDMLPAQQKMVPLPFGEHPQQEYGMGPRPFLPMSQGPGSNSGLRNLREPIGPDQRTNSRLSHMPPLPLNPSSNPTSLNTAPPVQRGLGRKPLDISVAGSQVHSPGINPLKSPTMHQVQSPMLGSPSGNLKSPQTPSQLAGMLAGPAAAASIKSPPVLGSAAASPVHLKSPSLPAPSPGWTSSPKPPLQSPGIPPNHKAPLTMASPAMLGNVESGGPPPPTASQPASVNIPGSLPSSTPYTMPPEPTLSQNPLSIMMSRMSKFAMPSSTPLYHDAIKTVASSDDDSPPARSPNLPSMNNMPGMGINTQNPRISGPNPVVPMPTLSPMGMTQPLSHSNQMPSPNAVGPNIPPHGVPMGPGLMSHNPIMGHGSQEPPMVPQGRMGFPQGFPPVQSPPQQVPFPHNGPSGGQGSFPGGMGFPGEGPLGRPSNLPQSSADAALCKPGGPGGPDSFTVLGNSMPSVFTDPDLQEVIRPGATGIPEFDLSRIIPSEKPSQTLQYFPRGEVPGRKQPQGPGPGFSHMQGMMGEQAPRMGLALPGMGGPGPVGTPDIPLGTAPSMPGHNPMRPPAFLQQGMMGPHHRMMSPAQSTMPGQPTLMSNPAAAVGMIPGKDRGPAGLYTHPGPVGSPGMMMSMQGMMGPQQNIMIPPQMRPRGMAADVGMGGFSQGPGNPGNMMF

B1: TBX3 (endogenous in mouse colorectal tumors) (protein, UniProt P70324 1-741)
chain: MSLSMRDPVIPGTSMAYHPFLPHRAPDFAMSAVLGHQPPFFPALTLPPNGAAALSLPGALAKPIMDQLVGAAETGIPFSSLGPQAHLRPLKTMEPEEDVEDDPKVHLEAKELWDQFHKRGTEMVITKSGRRMFPPFKVRCSGLDKKAKYILLMDIIAADDCRYKFHNSRWMVAGKADPEMPKRMYIHPDSPATGEQWMSKVVTFHKLKLTNNISDKHGFTLAFPSDHATWQGNYSFGTQTILNSMHKYQPRFHIVRANDILKLPYSTFRTYLFPETEFIAVTAYQNDKITQLKIDNNPFAKGFRDTGNGRREKRKQLTLQSMRVFEERHKKETSDESSSEQAAFNCFAQASSPAVSIVGTSNLKDLCPSEAESDAEAESKEEHGPEACDAAKISTTTAEEPGRDKGSPATRAQLFPAEPSRARDTARLDKASPDSRHSPATISSSTRVPGADERRSPGREGPVATKVDEARAIPAKDAFAPLSVQTDATAHLAQGPLPGLGFAPGLAGQQFFNGHPLFLHPGQFAMGGAFSSMAAGMGPLLATVSGASTGVSGLESTAMASAAAAQGLSGASAATLPFHLQQHVLASQGLAMSPFGSLFPYPYTYMAAAAAASTAAASSSVHRHPFLNLNSMRPRLRYSPYSIPVPVPDSSSLLATALPSMASAAGPLDGKAAALAASPASVAVDSGSELNSRSSTLSSGSVSLSPKLCSEKEAATSELQSIQRLVSGLEAKPDRSCSGSP
B2: TBX3-3xflag (protein, UniProt O15119 1-743)
chain: MSLSMRDPVIPGTSMAYHPFLPHRAPDFAMSAVLGHQPPFFPALTLPPNGAAALSLPGALAKPIMDQLVGAAETGIPFSSLGPQAHLRPLKTMEPEEEVEDDPKVHLEAKELWDQFHKRGTEMVITKSGRRMFPPFKVRCSGLDKKAKYILLMDIIAADDCRYKFHNSRWMVAGKADPEMPKRMYIHPDSPATGEQWMSKVVTFHKLKLTNNISDKHGFTLAFPSDHATWQGNYSFGTQTILNSMHKYQPRFHIVRANDILKLPYSTFRTYLFPETEFIAVTAYQNDKITQLKIDNNPFAKGFRDTGNGRREKRKQLTLQSMRVFDERHKKENGTSDESSSEQAAFNCFAQASSPAASTVGTSNLKDLCPSEGESDAEAESKEEHGPEACDAAKISTTTSEEPCRDKGSPAVKAHLFAAERPRDSGRLDKASPDSRHSPATISSSTRGLGAEERRSPVREGTAPAKVEEARALPGKEAFAPLTVQTDAAAAHLAQGPLPGLGFAPGLAGQQFFNGHPLFLHPSQFAMGGAFSSMAAAGMGPLLATVSGASTGVSGLDSTAMASAAAAQGLSGASAATLPFHLQQHVLASQGLAMSPFGSLFPYPYTYMAAAAAASSAAASSSVHRHPFLNLNTMRPRLRYSPYSIPVPVPDGSSLLTTALPSMAAAAGPLDGKVAALAASPASVAVDSGSELNSRSSTLSSSSMSLSPKLCAEKEAATSELQSIQRLVSGLEAKPDRSRSASP

Key:
[1] = target: T1, BCL9 (full-length, endogenous in control mouse colorectal tumors) (mouse (endogenous in mouse colorectal tumors)); assay: co-IP; the same anti-BCL9 immunoprecipitates of control or Bcl9/9l-ΔHD1 mouse tumor extracts, SDS-PAGE and blot probed with anti-TBX3
[2] = target: T2, BCL9-HA; assay: proximity ligation; NaveniFlex MR in situ PLA in transiently transfected HEK293T cells on coverslips; rabbit anti-HA paired with mouse anti-FLAG or anti-GFP; plasmids 1:1

Binder	binding [1]	binding [2]
B1	binds	–
B2	–	binds
